Reference: publication PMC3486646
Results are given in words; binding and its absence hold for the method and conditions named. Binding seen in cells or lysates may run through a third protein. Here binding means that the protein was enriched with, or labelled near, the bait; the list need not be complete. Where a sequence is shown, tags or fusion partners need not be part of it.

Amino acid sequences for entries named in this document (tags omitted). Residues count along the entry.
UniProt O95793, residues 82-577: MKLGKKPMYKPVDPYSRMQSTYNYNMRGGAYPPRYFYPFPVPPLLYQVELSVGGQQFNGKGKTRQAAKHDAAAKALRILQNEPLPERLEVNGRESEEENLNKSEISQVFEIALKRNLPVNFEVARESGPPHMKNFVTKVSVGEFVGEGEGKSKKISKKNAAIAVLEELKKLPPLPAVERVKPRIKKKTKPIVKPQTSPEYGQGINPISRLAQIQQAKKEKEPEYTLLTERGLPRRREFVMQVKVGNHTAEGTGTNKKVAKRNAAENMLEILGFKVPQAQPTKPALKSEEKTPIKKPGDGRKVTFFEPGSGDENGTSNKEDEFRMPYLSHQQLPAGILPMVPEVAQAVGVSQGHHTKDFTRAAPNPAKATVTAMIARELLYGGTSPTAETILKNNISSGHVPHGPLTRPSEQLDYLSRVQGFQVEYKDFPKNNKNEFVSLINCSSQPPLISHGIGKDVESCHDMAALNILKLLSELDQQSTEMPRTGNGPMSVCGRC

Molecular target: Staufen1-TAP (UniProt O95793)
Assay: affinity purification with mass spectrometry; tandem affinity purification of Staufen1-TAP from lysates of stable 293T cells, mock or pNL4-3 transfected; eluates on SDS-PAGE, 23 gel slices, in gel trypsin digestion, LC-MS/MS; FDR less than 1%

| Binder | binding |
| --- | --- |
| Putative RNA-binding protein Luc7-like 2 (protein, UniProt Q9Y383 1-392) MSAQAQMRAMLDQLMGTSRDGDTTRQRIKFSDDRVCKSHLLNCCPHDVLSGTRMDLGECLKVHDLALRADYEIASKEQDFFFELDAMDHLQSFIADCDRRTEVAKKRLAETQEEISAEVAAKAERVHELNEEIGKLLAKVEQLGAEGNVEESQKVMDEVEKARAKKREAEEVYRNSMPASSFQQQKLRVCEVCSAYLGLHDNDRRLADHFGGKLHLGFIEIREKLEELKRVVAEKQEKRNQERLKRREEREREEREKLRRSRSHSKNPKRSRSREHRRHRSRSMSRERKRRTRSKSREKRHRHRSRSSSRSRSRSHQRSRHSSRDRSRERSKRRSSKERFRDQDLASCDRDRSSRDRSPRDRDRKDKKRSYESANGRSEDRRSSEEREAGEI | binds |
| Probable ATP-dependent RNA helicase (DDX27) (protein, UniProt Q96GQ7 1-765) MLADLGLIGTIGEDDEVPVEPESDSGDEEEEGPIVLGRRQKALGKNRSADFNPDFVFTEKEGTYDGSWALADVMSQLKKKRAATTLDEKIEKVRKKRKTEDKEAKSGKLEKEKEAKEGSEPKEQEDLQENDEEGSEDEASETDYSSADENILTKADTLKVKDRKKKKKKGQEAGGFFEDASQYDENLSFQDMNLSRPLLKAITAMGFKQPTPIQKACIPVGLLGKDICACAATGTGKTAAFALPVLERLIYKPRQAPVTRVLVLVPTRELGIQVHSVTRQLAQFCNITTCLAVGGLDVKSQEAALRAAPDILIATPGRLIDHLHNCPSFHLSSIEVLILDEADRMLDEYFEEQMKEIIRMCSHHRQTMLFSATMTDEVKDLASVSLKNPVRIFVNSNTDVAPFLRQEFIRIRPNREGDREAIVAALLTRTFTDHVMLFTQTKKQAHRMHILLGLMGLQVGELHGNLSQTQRLEALRRFKDEQIDILVATDVAARGLDIEGVKTVINFTMPNTIKHYVHRVGRTARAGRAGRSVSLVGEDERKMLKEIVKAAKAPVKARILPQDVILKFRDKIEKMEKDVYAVLQLEAEEKEMQQSEAQINTAKRLLEKGKEAVVQEPERSWFQTKEERKKEKIAKALQEFDLALRGKKKRKKFMKDAKKKGEMTAEERSQFEILKAQMFAERLAKRNRRAKRARAMPEEEPVRGPAKKQKQGKKSVFDEELTNTSKKALKQYRAGPSFEERKQLGLPHQRRGGNFKSKSRYKRRK | binds |
| Signal recognition particle receptor subunit beta (protein, UniProt Q9Y5M8 1-271) MASADSRRVADGGGAGGTFQPYLDTLRQELQQTDPTLLSVVVAVLAVLLTLVFWKLIRSRRSSQRAVLLVGLCDSGKTLLFVRLLTGLYRDTQTSITDSCAVYRVNNNRGNSLTLIDLPGHESLRLQFLERFKSSARAIVFVVDSAAFQREVKDVAEFLYQVLIDSMGLKNTPSFLIACNKQDIAMAKSAKLIQQQLEKELNTLRVTRSAAPSTLDSSSTAPAQLGKKGKEFEFSQLPLKVEFLECSAKGGRGDVGSADIQDLEKWLAKIA | binds |
| Protein tyrosine phosphatase-like protein (PTPLAD1) (protein, UniProt Q9P035 1-362) MENQVLTPHVYWAQRHRELYLRVELSDVQNPAISITENVLHFKAQGHGAKGDNVYEFHLEFLDLVKPEPVYKLTQRQVNITVQKKVSQWWERLTKQEKRPLFLAPDFDRWLDESDAEMELRAKEEERLNKLRLESEGSPETLTNLRKGYLFMYNLVQFLGFSWIFVNLTVRFCILGKESFYDTFHTVADMMYFCQMLAVVETINAAIGVTTSPVLPSLIQLLGRNFILFIIFGTMEEMQNKAVVFFVFYLWSAIEIFRYSFYMLTCIDMDWKVLTWLRYTLWIPLYPLGCLAEAVSVIQSIPIFNETGRFSFTLPYPVKIKVRFSFFLQIYLIMIFLGLYINFRHLYKQRRRRYGQKKKKIH | binds |
| Pyruvate dehydrogenase E1 component subunit beta (protein, UniProt P11177 31-359) LQVTVRDAINQGMDEELERDEKVFLLGEEVAQYDGAYKVSRGLWKKYGDKRIIDTPISEMGFAGIAVGAAMAGLRPICEFMTFNFSMQAIDQVINSAAKTYYMSGGLQPVPIVFRGPNGASAGVAAQHSQCFAAWYGHCPGLKVVSPWNSEDAKGLIKSAIRDNNPVVVLENELMYGVPFEFPPEAQSKDFLIPIGKAKIERQGTHITVVSHSRPVGHCLEAAAVLSKEGVECEVINMRTIRPMDMETIEASVMKTNHLVTVEGGWPQFGVGAEICARIMEGPAFNFLDAPAVRVTGADVPMPYAKILEDNSIPQVKDIIFAIKKTLNI | binds |
| Ribonucleoprotein PTB-binding 1 (protein, UniProt Q8IY67 1-606) MAADVSVTHRPPLSPKSGAEVEAGDAAERRAPEEELPPLDPEEIRKRLEHTERQFRNRRKILIRGLPGDVTNQEVHDLLSDYELKYCFVDKYKGTAFVTLLNGEQAEAAINAFHQSRLRERELSVQLQPTDALLCVANLPPSLTQQQFEELVRPFGSLERCFLVYSERTGQSKGYGFAEYMKKDSAARAKSDLLGKPLGPRTLYVHWTDAGQLTPALLHSRCLCVDRLPPGFNDVDALCRALSAVHSPTFCQLACGQDGQLKGFAVLEYETAEMAEEAQQQADGLSLGGSHLRVSFCAPGPPGRSMLAALIAAQATALNRGKGLLPEPNILQLLNNLGPSASLQLLLNPLLHGSAGGKQGLLGAPPAMPLLNGPALSTALLQLALQTQGQKKPGILGDSPLGALQPGAQPANPLLGELPAGGGLPPELPPRRGKPPPLLPSVLGPAGGDREALGLGPPAAQLTPPPAPVGLRGSGLRGPLSHFYSGSPTSYFTSGLQAGLKQSHLSKAIGSSPLGSGEGLLGLSPGPNGHSHLLKVRAGGGDMQGWEAPAPQRPLTRPALPSVSRPHWAARNAALPTCCPRPSPAQKAAMWASTPRASAATTRTPT | binds |
| Pre-mRNA 3′-end-processing factor FIP1 (protein, UniProt Q6UN15 1-594) MSAGEVERLVSELSGGTGGDEEEEWLYGGPWDVHVHSDLAKDLDENEVERPEEENASANPPSGIEDETAENGVPKPKVTETEDDSDSDSDDDEDDVHVTIGDIKTGAPQYGSYGTAPVNLNIKTGGRVYGTTGTKVKGVDLDAPGSINGVPLLEVDLDSFEDKPWRKPGADLSDYFNYGFNEDTWKAYCEKQKRIRMGLEVIPVTSTTNKITAEDCTMEVTPGAEIQDGRFNLFKVQQGRTGNSEKETALPSTKAEFTSPPSLFKTGLPPSRNSTSSQSQTSTASRKANSSVGKWQDRYGRAESPDLRRLPGAIDVIGQTITISRVEGRRRANENSNIQVLSERSATEVDNNFSKPPPFFPPGAPPTHLPPPPFLPPPPTVSTAPPLIPPPGFPPPPGAPPPSLIPTIESGHSSGYDSRSARAFPYGNVAFPHLPGSAPSWPSLVDTSKQWDYYARREKDRDRERDRDRERDRDRDRERERTRERERERDHSPTPSVFNSDEERYRYREYAERGYERHRASREKEERHRERRHREKEETRHKSSRSNSRRRHESEEGDSHRRHKHKKSKRSKEGKEAGSEPAPEQESTEATPAE | binds |

Next, values leading:

| binding | Binder |
| --- | --- |
| binds | Splicing factor, arginine/serine-rich 4 (protein, UniProt Q08170 1-494) MPRVYIGRLSYQARERDVERFFKGYGKILEVDLKNGYGFVEFDDLRDADDAVYELNGKDLCGERVIVEHARGPRRDGSYGSGRSGYGYRRSGRDKYGPPTRTEYRLIVENLSSRCSWQDLKDYMRQAGEVTYADAHKGRKNEGVIEFVSYSDMKRALEKLDGTEVNGRKIRLVEDKPGSRRRRSYSRSRSHSRSRSRSRHSRKSRSRSGSSKSSHSKSRSRSRSGSRSRSKSRSRSQSRSRSKKEKSRSPSKEKSRSRSHSAGKSRSKSKDQAEEKIQNNDNVGKPKSRSPSRHKSKSKSRSRSQERRVEEEKRGSVSRGRSQEKSLRQSRSRSRSKGGSRSRSRSRSKSKDKRKGRKRSREESRSRSRSRSKSERSRKRGSKRDSKAGSSKKKKKEDTDRSQSRSPSRSVSKEREHAKSESSQREGRGESENAGTNQETRSRSRSNSKSKPNLPSESRSRSKSASKTRSRSKSRSRSASRSPSRSRSRSHSRS |
| binds | nuclear factor associated with dsRNA, NFAR-1 90 kDa isoform (protein, UniProt Q12906-2 1-702) MRPMRIFVNDDRHVMAKHSSVYPTQEELEAVQNMVSHTERALKAVSDWIDEQEKGSSEQAESDNMDVPPEDDSKEGAGEQKTEHMTRTLRGVMRVGLVAKGLLLKGDLDLELVLLCKEKPTTALLDKVADNLAIQLAAVTEDKYEILQSVDDAAIVIKNTKEPPLSLTIHLTSPVVREEMEKVLAGETLSVNDPPDVLDRQKCLAALASLRHAKWFQARANGLKSCVIVIRVLRDLCTRVPTWGPLRGWPLELLCEKSIGTANRPMGAGEALRRVLECLASGIVMPDGSGIYDPCEKEATDAIGHLDRQQREDITQSAQHALRLAAFGQLHKVLGMDPLPSKMPKKPKNENPVDYTVQIPPSTTYAITPMKRPMEEDGEEKSPSKKKKKIQKKEEKAEPPQAMNALMRLNQLKPGLQYKLVSQTGPVHAPIFTMSVEVDGNSFEASGPSKKTAKLHVAVKVLQDMGLPTGAEGRDSSKGEDSAEETEAKPAVVAPAPVVEAVSTPSAAFPSDATAEQGPILTKHGKNPVMELNEKRRGLKYELISETGGSHDKRFVMEVEVDGQKFQGAGSNKKVAKAYAALAALEKLFPDTPLALDANKKKRAPVPVRGGPKFAAKPHNPGFGMGGPMHNEVPPPPNLRGRGRGGSIRGRGRGRGFGGANHGGYMNAGAGYGSYGYGGNSATAGYSDFFTDCYGYHDFGSS |
| binds | T-plastin polypeptide (plastin-3) (protein, UniProt P13797 1-630) MDEMATTQISKDELDELKEAFAKVDLNSNGFICDYELHELFKEANMPLPGYKVREIIQKLMLDGDRNKDGKISFDEFVYIFQEVKSSDIAKTFRKAINRKEGICALGGTSELSSEGTQHSYSEEEKYAFVNWINKALENDPDCRHVIPMNPNTDDLFKAVGDGIVLCKMINLSVPDTIDERAINKKKLTPFIIQENLNLALNSASAIGCHVVNIGAEDLRAGKPHLVLGLLWQIIKIGLFADIELSRNEALAALLRDGETLEELMKLSPEELLLRWANFHLENSGWQKINNFSADIKDSKAYFHLLNQIAPKGQKEGEPRIDINMSGFNETDDLKRAESMLQQADKLGCRQFVTPADVVSGNPKLNLAFVANLFNKYPALTKPENQDIDWTLLEGETREERTFRNWMNSLGVNPHVNHLYADLQDALVILQLYERIKVPVDWSKVNKPPYPKLGANMKKLENCNYAVELGKHPAKFSLVGIGGQDLNDGNQTLTLALVWQLMRRYTLNVLEDLGDGQKANDDIIVNWVNRTLSEAGKSTSIQSFKDKTISSSLAVVDLIDAIQPGCINYDLVKSGNLTEDDKHNNAKYAVSMARRIGARVYALPEDLVEVKPKMVMTVFACLMGRGMKRV |
| binds | T-complex protein 1 subunit beta (protein, UniProt P78371 1-535) MASLSLAPVNIFKAGADEERAETARLTSFIGAIAIGDLVKSTLGPKGMDKILLSSGRDASLMVTNDGATILKNIGVDNPAAKVLVDMSRVQDDEVGDGTTSVTVLAAELLREAESLIAKKIHPQTIIAGWREATKAAREALLSSAVDHGSDEVKFRQDLMNIAGTTLSSKLLTHHKDHFTKLAVEAVLRLKGSGNLEAIHIIKKLGGSLADSYLDEGFLLDKKIGVNQPKRIENAKILIANTGMDTDKIKIFGSRVRVDSTAKVAEIEHAEKEKMKEKVERILKHGINCFINRQLIYNYPEQLFGAAGVMAIEHADFAGVERLALVTGGEIASTFDHPELVKLGSCKLIEEVMIGEDKLIHFSGVALGEACTIVLRGATQQILDEAERSLHDALCVLAQTVKDSRTVYGGGCSEMLMAHAVTQLANRTPGKEAVAMESYAKALRMLPTIIADNAGYDSADLVAQLRAAHSEGNTTAGLDMREGTIGDMAILGITESFQVKRQVLLSAAEAAEVILRVDNIIKAAPRKRVPDHHPC |
